In PMC9308285:
No constants are given. Whether binding was seen depends on the method and setting. Binding seen in cells or lysates may run through a third protein. Some results given as binding are weak or reduced against the parent protein; the word gives no strength.

Assays:
[1] = biological target: T1, Annexin-A1 (mouse (endogenous in primary microglia)) (UniProt P10107); experiment: co-IP; lysates of primary cultured mouse microglia infected with adenovirus encoding vector, SENP6, sh.NC or sh.SENP6; IP buffer with NEM or protease inhibitor mixture; antibody 12 h at 4 °C, protein A/G plus agarose 4 h at 4 °C, washed three times with PBS; immunoblot; which protein was precipitated is not told
T1 sequence: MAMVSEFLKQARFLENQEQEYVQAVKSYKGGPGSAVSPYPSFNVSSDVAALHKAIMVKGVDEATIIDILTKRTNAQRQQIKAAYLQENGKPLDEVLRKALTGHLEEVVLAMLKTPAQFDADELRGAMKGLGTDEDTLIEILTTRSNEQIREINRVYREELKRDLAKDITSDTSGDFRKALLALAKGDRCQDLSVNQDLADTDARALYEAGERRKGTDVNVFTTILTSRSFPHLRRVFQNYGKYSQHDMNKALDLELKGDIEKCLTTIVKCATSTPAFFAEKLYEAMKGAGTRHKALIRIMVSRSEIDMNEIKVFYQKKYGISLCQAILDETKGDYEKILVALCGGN

[2] = biological target: T2, NBR1 (mouse (endogenous in primary microglia)) (UniProt P97432); experiment: as above
T2 sequence: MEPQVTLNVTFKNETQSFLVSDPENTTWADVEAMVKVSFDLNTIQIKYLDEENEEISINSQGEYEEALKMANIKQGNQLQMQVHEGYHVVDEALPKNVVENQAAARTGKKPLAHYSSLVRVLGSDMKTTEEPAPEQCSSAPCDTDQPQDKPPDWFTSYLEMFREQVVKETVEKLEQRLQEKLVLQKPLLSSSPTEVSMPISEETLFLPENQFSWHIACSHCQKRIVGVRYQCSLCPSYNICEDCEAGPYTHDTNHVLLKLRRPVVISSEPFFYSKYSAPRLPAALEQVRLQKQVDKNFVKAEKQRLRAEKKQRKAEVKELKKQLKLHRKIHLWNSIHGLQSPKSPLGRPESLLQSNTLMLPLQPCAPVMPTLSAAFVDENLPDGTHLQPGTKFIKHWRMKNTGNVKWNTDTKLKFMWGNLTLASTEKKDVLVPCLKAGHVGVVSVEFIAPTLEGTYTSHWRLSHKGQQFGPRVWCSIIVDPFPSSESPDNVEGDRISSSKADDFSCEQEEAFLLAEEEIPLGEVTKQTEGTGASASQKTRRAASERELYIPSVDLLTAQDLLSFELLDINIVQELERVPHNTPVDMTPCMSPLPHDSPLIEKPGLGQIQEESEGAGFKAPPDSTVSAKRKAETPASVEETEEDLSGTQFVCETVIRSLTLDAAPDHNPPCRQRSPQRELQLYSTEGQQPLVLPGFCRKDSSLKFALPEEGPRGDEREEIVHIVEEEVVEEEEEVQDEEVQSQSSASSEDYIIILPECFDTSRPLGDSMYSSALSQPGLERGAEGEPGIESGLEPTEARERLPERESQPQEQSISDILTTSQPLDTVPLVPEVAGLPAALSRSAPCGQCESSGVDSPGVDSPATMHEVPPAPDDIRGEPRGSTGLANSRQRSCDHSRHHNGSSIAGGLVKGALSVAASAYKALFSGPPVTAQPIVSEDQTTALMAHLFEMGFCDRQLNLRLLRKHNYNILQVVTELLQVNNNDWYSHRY

binding [1]: binds | binding [2]: binds
B1: IκB kinase α (protein, UniProt Q60680 1-745)
chain: MERPPGLRPGAGGPWEMRERLGTGGFGNVSLYQHRELDLKIAIKSCRLELSSKNRERWCHEIQIMKKLDHANVVKACDVPEELNFLINDVPLLAMEYCSGGDLRKLLNKPENCCGLKESQILSLLSDIGSGIRYLHENKIIHRDLKPENIVLQDVGGKTIHKIIDLGYAKDVDQGSLCTSFVGTLQYLAPELFENKPYTATVDYWSFGTMVFECIAGYRPFLHHLQPFTWHEKIKKKDPKCIFACEEMTGEVRFSSHLPQPNSLCSLIVEPMESWLQLMLNWDPQQRGGPIDLTLKQPRCFALMDHILNLKIVHILNMTSAKIISFLLPCDESLHSLQSRIERETGINTGSQELLSETGISLDPRKPASQCVLDGVRGCDSYMVYLFDKSKTVYEGPFASRSLSDCVNYIVQDSKIQLPIIQLRKVWAEAVHYVSGLKEDYSRLFQGQRAAMLSLLRYNANLTKMKNTLISASQQLKAKLEFFRKSIQLDLERYSEQMTYGISSEKMLKAWKEMEEKAIHYSEVGVIGYLEDQIMSLHTEIMELQKSPYGRRQGDLMESLEQRAIDLYKQLKHRPPDHLYSDSTEMVKIIVHTVQSQDRVLKELFGHLSKLLGCKQKIIDLLPKVEVALSNIKEADNTVMFMQGKRQKEIWHLLKIACTQSSARSLVGSSLEGTVTPPVSAWLPPTLADREHPLTCVVTPQDGETLAQMIEENLNCLGHLSTIIREANEDQSSSLMSLDWSWLAE
